Test system: TRAIL
Assay: TRAIL in nasal mucus of patients with hyposmia before and after treatment with theophylline
Format: in vivo, human
Details: patients with hyposmia (5)

Cn1c(=O)c2[nH]cnc2n(C)c1=O [theophylline]
PROTEIN (theophylline 200 mg): 1.29 mg/dL
PROTEIN (theophylline 400 mg): 2.06 mg/dL
PROTEIN (theophylline 600 mg): 2.00 mg/dL

Reference: patent US11389453B2, “Compositions and methods for treating chemosensory dysfunction” (Cyrano Therapeutics, Inc., priority 2005, dated 2022)
